In patent US7966056B2, “Magnetic resonance imaging method and compounds for use in the method” (GE Healthcare AS, priority 2002, dated 2011):
At least one compound was matched to its structure with a doubt left.

Experiment: thermodynamic formation constant of the complex
Format: physicochemical

Row | Structure (SMILES) | thermodynamic formation constant
1 | O=C([O-])CN(CC(=O)[O-])CC(O)CN(CC(=O)[O-])CC(=O)[O-].[Mn+2].[Na+].[Na+] [Mn Na2 HPTA] | 10^9.1
2 | Cc1[nH+]cc(COP(=O)([O-])[O-])c(CN(CCN(CC(=O)[O-])Cc2c(COP(=O)([O-])O)c[nH+]c(C)c2O)CC(=O)[O-])c1O.[Mn].[Na+].[Na+].[Na+] [MnDPDP] | 10^15.1
